# Primary screen of a compound library

The filed quantity is “Percent Effect” (%). The controls that fix the scale are not given in the record; negative values are as filed. The compounds are a random part of those screened. Two or more numbers in one place are separate tests of the same structure; such repeats can differ widely.

Mtb glucose medium: 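Growth of Mycobacterium tuberculosis over 3 days (7H9 medium with glucose and tyloxapol); the read-out is not stated. Tested at 50 µM. Direction is inferred from retests: higher values go with more growth inhibition. Size under these conditions: about 69,000 compounds, about 760 of them at 50% or above in at least one test.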
Mtb cholesterol medium: 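Whole-cell growth test on Mycobacterium tuberculosis, read after 4 days in a medium based on cholesterol and the lipid DPPC; the read-out is not stated. Concentration: 50 µM. Direction is inferred from retests: higher values go with more growth inhibition. Of about 69,000 compounds tested this way, about 370 (0.54%) reached 50% or more in at least one test.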

compound | Mtb glucose medium | Mtb cholesterol medium
CC(Cn1cccn1)NC(=O)N(C)Cc1cnn(C)c1 (stereo not shown) | 13.49% | 12.53%
C[S+]([O-])c1nncn1CCCc1ccc(Cl)cc1 (stereo not shown) | -21.86% | -1.87%
CO[C@@H]1CCN(Cc2ccc(C)o2)[C@H]1Cc1ccccc1.O=C(O)C(F)(F)F | 1.085% and -38.17% | 14.44%
Cc1nc(CN2CCCC(N(C)CC3(O)CCCCC3)C2)no1 (stereo not shown) | -35.87% and 1.21% | -2.738%
CCOCCn1nnc(C2(NC(=O)c3ccccc3)CCCC2)n1 | 13.99% | 28.29%
Cc1noc(CCCC(=O)N2CCCC2c2ccsc2)n1 (stereo not shown) | -21.38% | -9.513%
Cc1noc(C)c1CNC(=O)c1cn(CCC2CCCCN2)nn1 (stereo not shown) | 24.28% | -5.397% and 12.43%
CC(C)CN1CC2(CCN(C(=O)C3CNC(=O)N3)CC2)CC1=O (stereo not shown) | 16.85% | 16.52%
Cc1nc(C(=O)N(C)CC2CCCO2)nn1-c1ccccc1C(C)C (stereo not shown) | 24.39% | 20.38%
CS(=O)(=O)CCCC(=O)N1CCN(CC2CC2)c2ccccc21 | -25.21% | 0.7898%
Cc1cc(N(C)CCOc2ccccc2F)nc(N)n1 | 8.199% | 15.71%
O=C(NCC1(O)COCCN(Cc2cccc(O)c2)C1)c1cscn1 (stereo not shown) | 67.55% | 15.59%
CCc1ncnc2c1CCN(c1ncc(F)cn1)CC2 | -21.93% and -3.971% | -20.64%
Cn1ccnc1CN1CCCC(CCc2ccc(F)c(F)c2)C1 (stereo not shown) | 8.772% | 14.55%
CCOc1ccc(CNCc2cccnc2N(C)C)cc1 | 19.04% | 8.379%
O=C(CN1CCCCCC1)NCCSc1cnn[nH]1 | 17.18% | 11.72%
CC1(C(=O)NCCN2CCCCC2)CCCN1C(=O)c1ccccc1 (stereo not shown) | -7.589% | 13.62%
CS(=O)(=O)c1cc(C(=O)NS(=O)(=O)Cc2ccc(F)cc2)ccc1Cl | -34.42% | -3.646%
[H][C@@]12CN(C(C)=O)C[C@]1(C(=O)NC)CCC21CCN(S(=O)(=O)CC)CC1 | -6.623% and -3.732% | -10.46%
CN(Cc1cccs1)c1nc2c(cnn2C(C)(C)C)c(=O)[nH]1 | 6.055% | -3.826%
Cc1occc1C(=O)N1CCc2c(CNS(C)(=O)=O)cncc2C1.Cl | -17.04% | 0.6375%
Cc1nc(C(NS(=O)(=O)N(C)C)c2ccccc2F)no1 (stereo not shown) | -17.47% and 4.836% | 7.761%
CC(CN1CCOCC1)NC1CCN(Cc2cccc(O)c2)CC1 (stereo not shown) | 8.189% | -1.512% and 12.34%
COCCCN(CCOC)Cc1nc2c(cnn2C)c(=O)[nH]1 | -9.835% | -11.53%
COc1ccccc1[C@@H]1CN(Cc2cnc(N(C)C)nc2)C[C@H]1C(=O)O | -26.26% | -25.6%
Cc1cccc(Oc2ccccc2CNC(=O)C2CCC(=O)NC2)c1 (stereo not shown) | -8.637% | -14.48% and -5.046%
O=C(Nc1ccc(F)cc1)NC1(CCO)CCOCC1 | 4.883% | -5.711%
Cc1cc(NCc2cccc(C#N)c2)ccc1C(=O)N(C)C | 3.424% and 3.129% | 9.118%
COCC1CC2(CCN(C(N)=O)CC2)CN1Cc1csc(C)n1.O=C(O)C(F)(F)F (stereo not shown) | -14.31% and -3.06% | -9.392%
COc1ccc(-c2ccccc2CN)c(OC)c1 | 2.304% and 5.628% | -7.193%
CS(=O)(=O)CCOCCNc1ccc(Br)cn1 | -0.8253% and 17.53% | -7.857%
O=C(O)[C@@H]1CN(C(=O)CCN2CCCCC2)C[C@H]1c1ccccc1 | 13.38% | -3.522%
CCOc1cc(C)nc(N2CCN(C(C)c3nc(C)no3)CC2)n1 (stereo not shown) | 27.35% | 18.24%
CCC(CN1CCN(C)CC1)NC(=O)C1(c2cccc(F)c2)CC1.O=C(O)CC(O)(CC(=O)O)C(=O)O (stereo not shown) | -20.49% | 3.799% and -8.46%
Cc1ccc(Cl)cc1N1CCC(CNC(=O)CCn2ccnn2)C1 (stereo not shown) | -16.77% | -13.03%
Cc1ccc2cc(CN(C)Cc3ccccn3)c(=O)[nH]c2c1 | -38.09% and 5.287% | -12.97%
Cn1c2ncccc2c(=O)n1CC(=O)NCCC1=CCCCC1 | 0.02445% | -4.486%
O=C(O)C(F)(F)F.[H][C@]12CN(Cc3cccc(C)c3)C(=O)[C@@]1([H])CN(C1CCOCC1)C2 | 10.35% and -20.59% | 17.36% and -8.142%
CC(C)Cc1cc(NC(=O)c2ccccn2)n(C)n1 | 57.67% | 34.96%
COC(=O)c1cccc(S(=O)(=O)NC(=O)CC2CCCC2)c1 | -23.47% | -23.54%
COC(=O)CCC(=O)N1CCc2nc(C(=O)N3CCOCC3)sc2CC1 | -2.027% and 6.714% | 11.18%
CN1CC(C(=O)NCCc2ccc3c(c2)OCO3)CC1=O (stereo not shown) | -1.507% | -0.6503%
Cc1ccc(C(=O)NCCCNc2ccc(C(F)(F)F)cn2)cc1 | 3.672% | -2.764%
CN1Cc2ccccc2CC2(CCN(Cc3nccn3C)CC2)C1=O | 15.65% | 1.415%

Some entries from above, unchanged:

compound,Mtb glucose medium,Mtb cholesterol medium
CC(C)CN1CC2(CCN(C(=O)C3CNC(=O)N3)CC2)CC1=O (stereo not shown),16.85%,16.52%
CCOc1cc(C)nc(N2CCN(C(C)c3nc(C)no3)CC2)n1 (stereo not shown),27.35%,18.24%
CC1(C(=O)NCCN2CCCCC2)CCCN1C(=O)c1ccccc1 (stereo not shown),-7.589%,13.62%
CO[C@@H]1CCN(Cc2ccc(C)o2)[C@H]1Cc1ccccc1.O=C(O)C(F)(F)F,1.085% and -38.17%,14.44%
O=C(NCC1(O)COCCN(Cc2cccc(O)c2)C1)c1cscn1 (stereo not shown),67.55%,15.59%
Cc1cc(N(C)CCOc2ccccc2F)nc(N)n1,8.199%,15.71%

From ChEMBL document CHEMBL3988442, “University of Dundee, Small-Polar-MMV Screening Library” (2021).